The text below walks through data of article PMC8591358.

This assay deals with GST-MUC1-CD (aa1–72) (human). In words: pull-down; GST-MUC1-CD (aa1-72) immobilized on glutathione-agarose beads, incubated with A549 cell lysates; c-Src, EGFR or γ-catenin immunoblot; only the target purified.

No constants are given. Whether binding was seen depends on the method and setting. Binding seen in cells or lysates may run through a third protein. Binding calls can cover weak binding; strength is not graded here.

B1: γ-catenin, endogenous in A549 cells (protein, UniProt P14923 1-745)
chain: MEVMNLMEQPIKVTEWQQTYTYDSGIHSGANTCVPSVSSKGIMEEDEACGRQYTLKKTTTYTQGVPPSQGDLEYQMSTTARAKRVREAMCPGVSGEDSSLLLATQVEGQATNLQRLAEPSQLLKSAIVHLINYQDDAELATRALPELTKLLNDEDPVVVTKAAMIVNQLSKKEASRRALMGSPQLVAAVVRTMQNTSDLDTARCTTSILHNLSHHREGLLAIFKSGGIPALVRMLSSPVESVLFYAITTLHNLLLYQEGAKMAVRLADGLQKMVPLLNKNNPKFLAITTDCLQLLAYGNQESKLIILANGGPQALVQIMRNYSYEKLLWTTSRVLKVLSVCPSNKPAIVEAGGMQALGKHLTSNSPRLVQNCLWTLRNLSDVATKQEGLESVLKILVNQLSVDDVNVLTCATGTLSNLTCNNSKNKTLVTQNSGVEALIHAILRAGDKDDITEPAVCALRHLTSRHPEAEMAQNSVRLNYGIPAIVKLLNQPNQWPLVKATIGLIRNLALCPANHAPLQEAAVIPRLVQLLVKAHQDAQRHVAAGTQQPYTDGVRMEEIVEGCTGALHILARDPMNRMEIFRLNTIPLFVQLLYSSVENIQRVAAGVLCELAQDKEAADAIDAEGASAPLMELLHSRNEGTATYAAAVLFRISEDKNPDYRKRVSVELTNSLFKHDPAAWEAAQSMIPINEPYGDDMDATYRPMYSSDVPLDPLEMHMDMDGDYPIDTYSDGLRPPYPTADHMLA
For B1, the binding result is on record as “binds”.
